From the supplement of paper PMC12819154, “High-throughput peptide-centric local stability assay extends protein–ligand identification to membrane proteins, tissues and bacteria” (Nature Structural & Molecular Biology, 2025)
The other results are listed elsewhere or left out. Most entries show no effect beyond the scatter of the controls.

Amino acid sequences for entries named in this document (tags omitted). A change or cut given only in a name is not applied to a line headed by its entry.
UniProt Q5THK1: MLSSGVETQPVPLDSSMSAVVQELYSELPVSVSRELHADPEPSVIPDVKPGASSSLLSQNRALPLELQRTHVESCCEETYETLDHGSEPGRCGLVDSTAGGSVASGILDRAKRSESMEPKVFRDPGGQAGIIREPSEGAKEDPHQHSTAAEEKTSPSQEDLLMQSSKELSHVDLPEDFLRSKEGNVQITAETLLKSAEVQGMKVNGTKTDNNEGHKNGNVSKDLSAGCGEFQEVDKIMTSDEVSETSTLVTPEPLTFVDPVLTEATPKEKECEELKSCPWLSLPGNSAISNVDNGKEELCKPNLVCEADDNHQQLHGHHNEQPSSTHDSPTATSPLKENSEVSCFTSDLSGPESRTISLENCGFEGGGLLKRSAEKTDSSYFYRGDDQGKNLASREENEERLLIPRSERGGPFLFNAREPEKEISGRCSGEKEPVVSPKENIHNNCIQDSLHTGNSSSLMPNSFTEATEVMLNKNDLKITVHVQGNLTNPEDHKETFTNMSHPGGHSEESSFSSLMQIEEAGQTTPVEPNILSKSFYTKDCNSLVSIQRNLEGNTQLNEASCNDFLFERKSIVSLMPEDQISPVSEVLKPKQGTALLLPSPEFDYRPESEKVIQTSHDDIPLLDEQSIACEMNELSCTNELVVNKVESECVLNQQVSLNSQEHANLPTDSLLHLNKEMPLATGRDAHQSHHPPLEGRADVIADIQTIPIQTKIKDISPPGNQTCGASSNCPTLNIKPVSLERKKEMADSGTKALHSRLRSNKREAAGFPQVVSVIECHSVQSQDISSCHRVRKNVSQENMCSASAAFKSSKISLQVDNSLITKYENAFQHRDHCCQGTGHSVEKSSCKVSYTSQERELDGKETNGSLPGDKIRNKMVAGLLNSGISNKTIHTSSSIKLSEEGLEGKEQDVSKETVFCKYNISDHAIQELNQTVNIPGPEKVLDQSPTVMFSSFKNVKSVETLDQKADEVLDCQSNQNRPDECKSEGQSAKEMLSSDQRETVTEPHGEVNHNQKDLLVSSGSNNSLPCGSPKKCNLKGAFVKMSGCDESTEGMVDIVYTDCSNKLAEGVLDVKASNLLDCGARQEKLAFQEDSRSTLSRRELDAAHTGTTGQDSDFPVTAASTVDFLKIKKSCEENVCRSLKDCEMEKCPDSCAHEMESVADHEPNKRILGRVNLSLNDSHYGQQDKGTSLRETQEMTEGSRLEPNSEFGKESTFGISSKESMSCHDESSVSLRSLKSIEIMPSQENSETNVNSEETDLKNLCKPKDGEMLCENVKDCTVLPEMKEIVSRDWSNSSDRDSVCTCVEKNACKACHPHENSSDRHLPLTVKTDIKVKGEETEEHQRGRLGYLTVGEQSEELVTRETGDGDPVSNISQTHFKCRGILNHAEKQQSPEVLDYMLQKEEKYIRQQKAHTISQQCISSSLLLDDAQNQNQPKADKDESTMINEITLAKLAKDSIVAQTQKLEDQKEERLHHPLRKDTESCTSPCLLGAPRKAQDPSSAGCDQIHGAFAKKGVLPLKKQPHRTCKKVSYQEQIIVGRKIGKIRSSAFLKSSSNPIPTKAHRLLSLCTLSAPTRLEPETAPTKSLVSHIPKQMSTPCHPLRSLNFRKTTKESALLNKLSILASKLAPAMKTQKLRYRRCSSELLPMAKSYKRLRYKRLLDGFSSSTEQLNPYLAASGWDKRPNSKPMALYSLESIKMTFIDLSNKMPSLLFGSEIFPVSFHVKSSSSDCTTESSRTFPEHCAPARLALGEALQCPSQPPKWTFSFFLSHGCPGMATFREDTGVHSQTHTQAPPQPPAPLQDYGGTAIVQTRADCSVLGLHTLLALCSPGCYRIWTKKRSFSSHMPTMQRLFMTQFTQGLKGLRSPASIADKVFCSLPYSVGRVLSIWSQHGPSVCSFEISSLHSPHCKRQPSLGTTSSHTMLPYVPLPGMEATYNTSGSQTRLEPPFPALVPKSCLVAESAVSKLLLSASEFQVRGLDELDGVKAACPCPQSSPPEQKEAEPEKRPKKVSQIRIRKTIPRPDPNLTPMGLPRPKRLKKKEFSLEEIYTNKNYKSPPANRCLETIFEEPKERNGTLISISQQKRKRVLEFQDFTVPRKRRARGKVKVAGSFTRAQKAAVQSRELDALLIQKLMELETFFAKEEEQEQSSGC
UniProt Q49AG3: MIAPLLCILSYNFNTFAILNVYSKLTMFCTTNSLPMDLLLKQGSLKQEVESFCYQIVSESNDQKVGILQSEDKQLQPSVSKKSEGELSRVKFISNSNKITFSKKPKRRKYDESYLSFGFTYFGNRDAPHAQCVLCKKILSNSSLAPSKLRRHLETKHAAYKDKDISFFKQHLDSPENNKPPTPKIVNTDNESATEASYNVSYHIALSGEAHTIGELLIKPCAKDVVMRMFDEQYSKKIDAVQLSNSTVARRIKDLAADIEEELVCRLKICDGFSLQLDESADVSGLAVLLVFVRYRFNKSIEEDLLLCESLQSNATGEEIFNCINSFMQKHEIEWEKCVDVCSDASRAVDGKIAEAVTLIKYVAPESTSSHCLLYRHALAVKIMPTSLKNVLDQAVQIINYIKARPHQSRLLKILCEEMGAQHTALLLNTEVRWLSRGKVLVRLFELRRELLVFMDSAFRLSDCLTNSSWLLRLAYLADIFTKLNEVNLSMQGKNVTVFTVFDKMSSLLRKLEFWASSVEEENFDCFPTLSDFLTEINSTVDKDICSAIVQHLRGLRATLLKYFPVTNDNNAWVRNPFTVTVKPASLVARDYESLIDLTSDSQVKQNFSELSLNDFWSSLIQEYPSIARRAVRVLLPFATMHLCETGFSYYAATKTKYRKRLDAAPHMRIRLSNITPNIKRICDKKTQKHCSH
UniProt Q53EQ6: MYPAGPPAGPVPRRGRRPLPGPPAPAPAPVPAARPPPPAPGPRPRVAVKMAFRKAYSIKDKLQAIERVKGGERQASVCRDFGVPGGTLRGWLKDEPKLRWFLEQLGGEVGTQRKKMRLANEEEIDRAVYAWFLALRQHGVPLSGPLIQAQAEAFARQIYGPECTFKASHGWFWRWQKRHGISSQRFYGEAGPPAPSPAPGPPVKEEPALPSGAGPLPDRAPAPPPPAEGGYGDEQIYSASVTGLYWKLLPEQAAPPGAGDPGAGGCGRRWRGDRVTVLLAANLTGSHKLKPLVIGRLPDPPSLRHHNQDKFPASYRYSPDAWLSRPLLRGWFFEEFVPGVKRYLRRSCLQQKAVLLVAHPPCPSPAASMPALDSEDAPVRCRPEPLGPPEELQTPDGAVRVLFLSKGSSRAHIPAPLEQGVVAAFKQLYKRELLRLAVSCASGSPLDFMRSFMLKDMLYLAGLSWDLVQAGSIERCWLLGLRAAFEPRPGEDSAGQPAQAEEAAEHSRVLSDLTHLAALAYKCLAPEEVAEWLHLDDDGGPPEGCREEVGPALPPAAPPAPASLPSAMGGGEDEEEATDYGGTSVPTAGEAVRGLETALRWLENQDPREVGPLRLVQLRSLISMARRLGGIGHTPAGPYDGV
UniProt Q4L235: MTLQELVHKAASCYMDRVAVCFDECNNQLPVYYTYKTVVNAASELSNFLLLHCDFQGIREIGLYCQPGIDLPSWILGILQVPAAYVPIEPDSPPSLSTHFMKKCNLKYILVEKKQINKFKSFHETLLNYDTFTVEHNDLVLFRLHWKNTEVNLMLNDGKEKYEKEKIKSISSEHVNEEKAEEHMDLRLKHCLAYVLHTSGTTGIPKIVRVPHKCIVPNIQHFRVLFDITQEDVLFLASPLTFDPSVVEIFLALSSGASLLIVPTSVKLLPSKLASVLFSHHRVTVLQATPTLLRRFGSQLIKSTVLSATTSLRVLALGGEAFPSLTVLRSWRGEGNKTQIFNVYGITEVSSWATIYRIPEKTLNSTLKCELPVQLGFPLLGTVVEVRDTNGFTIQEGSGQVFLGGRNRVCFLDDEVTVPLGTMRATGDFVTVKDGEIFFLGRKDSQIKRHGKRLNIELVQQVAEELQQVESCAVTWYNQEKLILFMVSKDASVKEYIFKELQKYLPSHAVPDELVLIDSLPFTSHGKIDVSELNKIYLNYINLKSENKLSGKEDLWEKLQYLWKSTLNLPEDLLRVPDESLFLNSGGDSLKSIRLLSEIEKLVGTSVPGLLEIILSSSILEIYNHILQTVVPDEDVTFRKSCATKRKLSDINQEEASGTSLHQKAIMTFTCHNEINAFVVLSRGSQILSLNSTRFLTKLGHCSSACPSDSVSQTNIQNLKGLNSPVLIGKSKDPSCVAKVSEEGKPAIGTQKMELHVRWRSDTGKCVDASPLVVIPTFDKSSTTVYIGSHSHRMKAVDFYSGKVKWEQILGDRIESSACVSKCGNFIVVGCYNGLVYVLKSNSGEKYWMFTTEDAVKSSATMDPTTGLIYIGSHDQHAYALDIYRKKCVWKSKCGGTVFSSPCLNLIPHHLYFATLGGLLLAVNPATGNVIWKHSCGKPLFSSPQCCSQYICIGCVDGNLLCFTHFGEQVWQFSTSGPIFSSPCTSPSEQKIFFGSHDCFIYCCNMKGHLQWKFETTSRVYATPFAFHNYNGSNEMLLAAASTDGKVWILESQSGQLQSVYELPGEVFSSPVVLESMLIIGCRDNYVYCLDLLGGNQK
UniProt Q5TEU4: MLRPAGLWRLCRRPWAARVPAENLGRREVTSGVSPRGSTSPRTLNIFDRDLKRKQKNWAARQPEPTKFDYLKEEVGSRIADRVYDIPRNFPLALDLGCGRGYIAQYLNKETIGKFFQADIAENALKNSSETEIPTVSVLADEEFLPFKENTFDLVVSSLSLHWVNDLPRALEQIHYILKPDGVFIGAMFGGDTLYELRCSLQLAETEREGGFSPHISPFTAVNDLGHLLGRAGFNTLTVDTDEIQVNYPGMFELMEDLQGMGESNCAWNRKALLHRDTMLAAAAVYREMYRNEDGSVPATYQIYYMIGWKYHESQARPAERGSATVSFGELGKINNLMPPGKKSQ
UniProt Q5T6J7: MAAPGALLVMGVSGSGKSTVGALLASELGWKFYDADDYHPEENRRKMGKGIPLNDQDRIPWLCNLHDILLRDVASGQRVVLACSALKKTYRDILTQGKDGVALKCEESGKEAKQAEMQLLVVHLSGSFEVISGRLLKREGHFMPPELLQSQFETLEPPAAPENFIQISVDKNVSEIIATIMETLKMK
UniProt Q5T6F2: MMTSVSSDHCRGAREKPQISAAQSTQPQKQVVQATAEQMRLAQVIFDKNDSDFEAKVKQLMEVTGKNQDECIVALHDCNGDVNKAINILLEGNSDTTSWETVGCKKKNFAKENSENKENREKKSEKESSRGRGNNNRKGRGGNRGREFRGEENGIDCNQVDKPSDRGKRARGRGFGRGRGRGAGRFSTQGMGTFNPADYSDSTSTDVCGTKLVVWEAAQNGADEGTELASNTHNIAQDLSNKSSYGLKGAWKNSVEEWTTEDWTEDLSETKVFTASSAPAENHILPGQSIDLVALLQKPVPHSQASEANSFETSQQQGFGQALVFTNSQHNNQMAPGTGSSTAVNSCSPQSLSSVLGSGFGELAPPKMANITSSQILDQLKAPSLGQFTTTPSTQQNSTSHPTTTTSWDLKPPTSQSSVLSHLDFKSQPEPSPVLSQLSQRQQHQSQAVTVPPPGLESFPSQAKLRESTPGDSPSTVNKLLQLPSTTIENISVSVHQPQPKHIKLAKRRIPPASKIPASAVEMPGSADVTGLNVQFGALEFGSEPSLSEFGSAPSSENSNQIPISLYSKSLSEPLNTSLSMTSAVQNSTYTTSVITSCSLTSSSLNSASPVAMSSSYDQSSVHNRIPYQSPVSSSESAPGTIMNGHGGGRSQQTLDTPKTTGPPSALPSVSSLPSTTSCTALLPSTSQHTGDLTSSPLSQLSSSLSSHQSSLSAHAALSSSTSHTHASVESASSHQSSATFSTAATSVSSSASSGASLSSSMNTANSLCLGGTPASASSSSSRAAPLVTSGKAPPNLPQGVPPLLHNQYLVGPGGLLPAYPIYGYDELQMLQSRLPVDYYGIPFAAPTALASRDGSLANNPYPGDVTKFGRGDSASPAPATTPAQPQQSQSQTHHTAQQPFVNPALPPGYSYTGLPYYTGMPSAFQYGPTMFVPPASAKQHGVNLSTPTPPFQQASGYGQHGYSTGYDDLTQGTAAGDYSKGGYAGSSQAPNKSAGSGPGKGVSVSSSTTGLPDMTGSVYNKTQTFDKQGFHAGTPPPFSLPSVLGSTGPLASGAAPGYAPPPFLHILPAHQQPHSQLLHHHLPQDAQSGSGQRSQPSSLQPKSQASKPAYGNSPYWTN

The targets below were run with Cc1nc(Nc2ncc(C(=O)Nc3c(C)cccc3Cl)s2)cc(N2CCN(CCO)CC2)n1 [dasatinib] (assay: log2 fold change of tryptic peptide abundance, ligand vs vehicle (limited proteolysis) (log2 ratio); higher = more trypsin-susceptible (destabilized)). Conditions: ligand concentration: 5 uM; sample: K562 cleared lysate.
Work on “SH3PXD2A (peptide sequence: WTLGGMVNR, peptide start residue: 255) (UniProt Q5TCZ1)” yielded a log2 fold change of 0.515. For “FASTKD1 (peptide sequence: ITQELTFLHFQR, peptide start residue: 381) (UniProt Q53R41)”, the log2 fold change was -0.441. “UniProt Q5THK1 (peptide sequence: VKGEETEEHQR, peptide start residue: 1333)” gave a log2 fold change of 0.532. In the case of “ZBED5 (peptide sequence: VGILQSEDK, peptide start residue: 65) (UniProt Q49AG3)”, the log2 fold change is reported as 0.118. “UniProt Q53EQ6 (peptide sequence: DFGVPGGTLR, peptide start residue: 80)” gave a log2 fold change of -0.0195. Target “AASDH (peptide sequence: KLSDINQEEASGTSLHQK, peptide start residue: 647) (UniProt Q4L235)” has a log2 fold change of 0.118. “UniProt Q3ZCX4 (peptide sequence: KENLITHQK, peptide start residue: 262)” showed a log2 fold change of 0.125. “UniProt Q5TEU4 (peptide sequence: GSATVSFGELGK, peptide start residue: 322)” was tested, and the log2 fold change was 0.14. “UniProt Q5T6J7 (peptide sequence: FYDADDYHPEENRR, peptide start residue: 32)” was tested, and the log2 fold change was 0.359. “UBR4 (peptide sequence: DLDPEVFQR, peptide start residue: 2564) (UniProt Q5T4S7)” gave a log2 fold change of 0.0907. “UBAP2 (peptide sequence: SQPSSLQPK, peptide start residue: 1095) (UniProt Q5T6F2)” gave a log2 fold change of -0.113.
